Measurements reported in patent US7132417B2, “2-phenyl-1-[4-(2-aminoethoxy)-benzyl]-indoles as estrogenic agents” (Wyeth, priority 1996, dated 2006).
For at least one compound, name, drawing or mass did not settle the structure.

Tested on: Female Sprague Dawley CD rats, ovx
Assay: 6-week ovariectomized rat model
Format: in vivo
Conditions: 2 μg/rat, s.c., mean ± SEM
Excerpt: Method No. 20 6-Week Ovariectomized Rat Model
Female Sprague Dawley CD rats, ovx or sham ovx, were obtained 1 day after surgery from Taconic Farm (weight range 240–275 g). They were housed 3 or 4 rats/cage in a room on a 14/10 (light/dark) schedule and provided with food (Purina 500 rat chow) and water ad libitum. Treatment for all studies began 1 day after the animals arrival and dosed 5 or 7 days per week as indicated for 6 weeks. A group of age matched sham operated rats not receiving any treatment served as an intact, estrogen replete control group for each study. All treatments were prepared in 1% tween 80 in normal saline at defined concentrations so that the treatment volume was 0.1 mL/100 g body weight. 17-beta estradiol was dissolved in corn oil (20 uG/mL) and delivered subcutaneously, 0.1 mL/rat. All dosages were adjusted at three week intervals according to group mean body weight measurements.
Five weeks after the initiation of treatment and one week prior to the termination of the study, each rat was evaluated for bone mineral density (BMD). The BMD's of the proximal tibiae (PT) and fourth lumbar vertabrae (L4) were measured in anesthetized rats using a dual energy X-ray absorptiometer (Eclipse XR-26, Norland Corp. Ft. Atkins, Wis.). The dual energy X-ray absorptiometer (DXA) measurements for each rat were performed as follows: Fifteen minutes prior to DXA measurements, the rat was anesthetized with an intraperitoneal injection of 100 mg/kg ketamine (Bristol Laboratories, Syracuse, N.Y.) and 0.75 mg/kg acepromazine (Aveco, Ft. Dodge, Iowa). The rat was placed on an acrylic table under the DXA scanner perpendicular to its path; the limbs were extended and secured with paper tape to the surface of the table. A preliminary scan was performed at a scan speed of 50 mm/second with a scan resolution of 1.5 mm×1.5 mm to determine the region of interest in PT and L4. […] Total cholesterol is determined using a Boehringer-Mannheim Hitachi 911 clinical analyzer using the Cholesterol/HP kit. […]

## C[C@]12CC[C@@H]3c4ccc(O)cc4CC[C@H]3[C@@H]1CC[C@@H]2O [17β-estradiol]
Following 5 weeks of treatment
  BMD Proximal Tibia: 0.224 ± 0.004 mg/cm^2
Following 6 weeks of treatment
  Uterine Weight: 426.0 ± 18.4 mg
  Δ Body Weight: 33.1 ± 4.9 g
